Test results published in patent US20230181661A1, “MUSHROOM-CONTAINING CHINESE MEDICINE COMPOUND COMPOSITION FOR KELOID SCAR TISSUE AND APPLICATION THEREOF” (ASIA UNIVERSITY, priority 2021, published 2023).
At least one structure is not confirmed: it was looked up by name or label, or the drawing left a doubt.

System: KFS cells
Assay: Cell metabolic activity assay (MTT assay)
Format: cell-based
Conditions: 6.25 to 100 micromolar concentration
Experimental: KFS cells were obtained from the Biosource Collection and Research Center (BCRC) of the Food Industry Research and Development Institute (Hsinchu, Taiwan). KFS cells were cultured in Dulbecco's modified eagle medium (DMEM) containing 10% FBS, 1.5 g/L sodium bicarbonate, 4 mM L-glutamine, 4.5 g/L glucose, 100 units/mL penicillin G, and 100 μg/mL streptomycin sulfate. All cells were incubated in a humidified environment with 5% CO2 and 37° C. The medium was refreshed every 2 days. KFS cells (2×10^4 cells/well) were seeded in 96-well plates overnight. KFS cells were exposed to different concentrations of a test drug in 100 μL of medium (for example, combination of 10 Chinese medicine ingredients). After 24 hours treatment, 10 μL of 5 mg/mL MTT (3-(4,5-dimethylthiazol-2-yl)-2,5-diphenyltetrazolium bromide) was added to each well. After incubation for 4 hours, cells were washed twice with 1×PBS. Next, 200 μL of dimethyl sulfoxide (DMSO) was added to each well. An absorbance value at 570 nm was determined for each well by using 650 nm as a reference wavelength. Compared with a control group (untreated with reagents), the absorbance may be correlated with the percentage of active cells. The cell metabolic activity rate is calculated as follows: Cell metabolic activity (%)=OD (treatment)/OD (control)×100%.

COc1ccc2cc1Oc1ccc(cc1)C[C@H]1c3cc(c(OC)cc3CCN1C)Oc1c(OC)c(OC)cc3c1[C@H](C2)N(C)CC3 [Tetrandrine]
growth of keloid fibroblasts: inhibit the growth
